PubChem BioAssay AID1159508, Drosophila RNAi Screening Center, 2015
Screen: 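Overall cell fitness after RNAi as a quality check of the library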. Cells: Drosophila S2R+ cells. Reagent: long dsRNA against Drosophila genes. Timing: 5 days. Read-out: 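Total ATP per well measured by luciferase luminescence after 5 days, expressed as z-scores for each replicate and as their average across up to three replicates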. Direction: mean ATP z-score and ATP z-score: higher = more total ATP luminescence. Rule for the call: In these data the active calls have mean ATP z-score at about -2 or lower, or at about 2 or higher. Calls: active = strong ATP change (up or down); inactive = no strong ATP change.
The whole screen tested 812 reagents; this is a random part of them. 18 of all reagents (2.2%) count as active. 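Calls include both increased and decreased ATP; roughly one in four reagents has no third replicate value.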 Not all columns of the deposit are shown. The record does not give: the amount of reagent.

HBS1 [DRSC28426] showed mean ATP z-score -0.134; ATP z-score, replicate 1 = -0.291; inactive.
Against HBS1 [DRSC35780] the deposit lists mean ATP z-score 1.53; ATP z-score, replicate 1 = 0.816; inactive.
Silencing of clu [DRSC07181] came out at: mean ATP z-score -0.168; ATP z-score, replicate 1 = -0.395; inactive.
Against clu [DRSC29278] the deposit lists mean ATP z-score -0.278; ATP z-score, replicate 1 = -0.406; inactive.
After knock-down of CG6937 [DRSC23708], the screen gave mean ATP z-score -0.45; ATP z-score, replicate 1 = -0.546; inactive.
Against CG6937 [DRSC32426], the values are mean ATP z-score 0.313; ATP z-score, replicate 1 = -0.386; inactive.
After knock-down of CG11454 [DRSC00310], the record shows mean ATP z-score -0.604; ATP z-score, replicate 1 = -0.8; inactive.
Depletion of CG11454 [DRSC25138] gave: mean ATP z-score 0.264; ATP z-score, replicate 1 = 0.14; inactive.
With knock-down of Prp5 [DRSC27434] the results were mean ATP z-score -0.9; ATP z-score, replicate 1 = -1.01; inactive.
Depletion of Prp5 [DRSC35423] gave: mean ATP z-score 1.48; ATP z-score, replicate 1 = 1.05; inactive.

In a second layout: entries from further up
| target | amplicon | mean ATP z-score | ATP z-score, replicate 1 | activity call |
| --- | --- | --- | --- | --- |
| HBS1 | DRSC28426 | -0.134 | -0.291 | inactive |
| HBS1 | DRSC35780 | 1.53 | 0.816 | inactive |

Next results:
Against Imp [DRSC20255], the entry reads mean ATP z-score 0.111; ATP z-score, replicate 1 = 0.0294; inactive.
After knock-down of Imp [DRSC35798] the results were mean ATP z-score -0.267; ATP z-score, replicate 1 = -0.275; inactive.
After knock-down of Unr [DRSC26920], the screen gave mean ATP z-score -0.551; ATP z-score, replicate 1 = -0.674; inactive.
For Unr [DRSC39356], the entry reads mean ATP z-score 0.496; ATP z-score, replicate 1 = 0.237; inactive.
With knock-down of RluA-1 [DRSC02240], the screen gave mean ATP z-score -0.343; ATP z-score, replicate 1 = -0.947; inactive.
Depletion of RluA-1 [DRSC03060] gave: mean ATP z-score 0.312; ATP z-score, replicate 1 = 0.0986; inactive.
Tdrd3 [DRSC38180] scored mean ATP z-score -0.516; ATP z-score, replicate 1 = -0.811; inactive.
Tdrd3 [DRSC38181] scored mean ATP z-score -0.0509; ATP z-score, replicate 1 = -0.498; inactive.
hoip [DRSC03546] scored mean ATP z-score -2.82; ATP z-score, replicate 1 = -2.71; active.
hoip [DRSC31857] gave mean ATP z-score -2.75; ATP z-score, replicate 1 = -2.66; active.
Silencing of DCP2 [DRSC10597] came out at: mean ATP z-score 2.24; ATP z-score, replicate 1 = 1.94; active.
With knock-down of DCP2 [DRSC34890], the record shows mean ATP z-score 0.537; ATP z-score, replicate 1 = -0.0272; inactive.
